Each compound was assayed on MRC-5 human fibroblasts (assay: Cytotoxicity assay (AlamarBlue) on MRC-5 human fibroblasts). Details: MRC-5 vs P. falciparum K1.
Format: cell-based
Method: The MRC-5 cell line of human fibroblasts was grown in Dulbecco’s Modified Eagle’s Medium (DMEM) supplemented with 10% fetal bovine serum, 2 mM glutamine, 100 μg/mL streptomycin and 100 U/mL penicillin, and incubated at 37°C with a 5% atmosphere of CO2. For assays, the cells were plated in 96-well plates (2.5 × 10^4 cells/well) and the AlamarBlue™ assay was performed using a previously described procedure. After incubation for 24 h, compounds 1-5 were individually dissolved in DMSO and the resulting solutions were diluted in culture medium. The resulting dilute solutions of each sample were added to wells at final (well) concentrations of 1.56-100 μg/mL. Control groups had final well concentrations of 0.1% DMSO. The plates were further incubated for 48 h. 3 h before the end of the incubation period, AlamarBlue™ (10 μL) was added to each well. The fluorescent signal was monitored with a multiplate reader using 530-560 nm excitation and 590 nm emission wavelengths.

Structure (SMILES) | SI = IC50 (human fibroblasts)/IC50 (P. falciparum)
CC(=O)O[C@@H]1C2C(C)(C)C(=O)C=C[C@]2(C)C2CC[C@@]3(C)[C@H](c4ccoc4)OC(=O)[C@H]4O[C@]43[C@]2(C)[C@@H]1OC(C)=O (stereo partly drawn) [compound 3, 6α-acetoxygedunin] | >26
CC1(C)C(=O)C=C[C@@]2(C)C1CC(=O)[C@]1(C)C2CC[C@@]2(C)[C@H](c3ccoc3)OC(=O)[C@H]3O[C@]321 (stereo partly drawn) [compound 4, 7-deacetoxy-7-oxogedunin] | 5
CC(=O)O[C@@H]1C2C(C)(C)C(=O)C=C[C@]2(C)C2CC[C@@]3(C)[C@H](c4ccoc4)C(=O)[C@H]4O[C@]43[C@]2(C)[C@@H]1OC(C)=O (stereo partly drawn) [compound 1, 6α-acetoxyepoxyazadiradione] | >12

— paper PMC4138406, “In vitro and in vivo anti-malarial activity of limonoids isolated from the residual seed biomass from Carapa guianensis (andiroba) oil production” (Malaria Journal, 2014)
